Source: PubChem BioAssay AID1224826 (NIAID, 2016)
Purpose: 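Genes that change LPS-induced Tnf promoter activity in mouse macrophages when knocked down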 (primary screen). Cells: RAW264.7 G9 macrophages from mouse bearing reporters for p65 (GFP) and the Tnf promoter (mCherry). Reagents: siRNA pool against mouse genes, 100 nM. Time to read-out: 16 h of LPS stimulation, after 2 days of siRNA transfection. Treatment: bacterial lipopolysaccharide (Salmonella minnesota R595), 10 ng/ml. Measurement: 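Nuclear mCherry signal of the Tnf promoter reporter measured by imaging after background removal, scaled to each plate median and turned into robust z-scores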. Direction: Tnf reporter robust z-score: higher = stronger Tnf promoter reporter signal after LPS. Active means: 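a well counts as active at a score of -1.3 or below (Tlr4 knock-down control median) or above 3 (raised signal); controls and wells holding fewer than 50 cells are excluded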. Calls: active = Tnf reporter clearly lowered or raised; inactive = no clear change in Tnf reporter.
This is a random part of about 17,000 reagents tested. Of all reagents, about 1,110 (6.6%) got an active call. 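Active means lowered or raised reporter signal; replicate intensities are raw and not normalised per plate.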 Further read-outs or replicates are left out here.

{"Gene": "Actr3b (ARP3 actin-related protein 3B)", "PubChem SID": "SID315479657", "Tnf reporter robust z-score": -0.29, "fewer than 50 cells in well": "enough cells in well", "activity call": "inactive"}
{"Gene": "Eprs1 (glutamyl-prolyl-tRNA synthetase 1)", "PubChem SID": "SID315476609", "Tnf reporter robust z-score": -0.8, "fewer than 50 cells in well": "enough cells in well", "activity call": "inactive"}
{"Gene": "Sun3 (Sad1 and UNC84 domain containing 3)", "PubChem SID": "SID315477460", "fewer than 50 cells in well": "fewer than 50 cells per well; well left out of calls", "activity call": "inactive"}
{"Gene": "Btk (Bruton agammaglobulinemia tyrosine kinase)", "PubChem SID": "SID315465682", "Tnf reporter robust z-score": -0.41, "fewer than 50 cells in well": "enough cells in well", "activity call": "inactive"}
{"Gene": "Mrps5 (mitochondrial ribosomal protein S5)", "PubChem SID": "SID315475503", "Tnf reporter robust z-score": 0.34, "fewer than 50 cells in well": "enough cells in well", "activity call": "inactive"}
{"Gene": "Evpl (envoplakin)", "PubChem SID": "SID315466584", "Tnf reporter robust z-score": 0.44, "fewer than 50 cells in well": "enough cells in well", "activity call": "inactive"}
{"Gene": "Hoxb5 (homeobox B5)", "PubChem SID": "SID315467262", "Tnf reporter robust z-score": 0.74, "fewer than 50 cells in well": "enough cells in well", "activity call": "inactive"}
{"Gene": "Or4c124 (olfactory receptor family 4 subfamily C member 124)", "PubChem SID": "SID315480011", "Tnf reporter robust z-score": 0.26, "fewer than 50 cells in well": "enough cells in well", "activity call": "inactive"}

Next part, starting with the last 2 of the part before.
{"Gene": "Hoxb5 (homeobox B5)", "PubChem SID": "SID315467262", "Tnf reporter robust z-score": 0.74, "fewer than 50 cells in well": "enough cells in well", "activity call": "inactive"}
{"Gene": "Or4c124 (olfactory receptor family 4 subfamily C member 124)", "PubChem SID": "SID315480011", "Tnf reporter robust z-score": 0.26, "fewer than 50 cells in well": "enough cells in well", "activity call": "inactive"}
{"Gene": "Triobp (TRIO and F-actin binding protein)", "PubChem SID": "SID315476889", "Tnf reporter robust z-score": 0.3, "fewer than 50 cells in well": "enough cells in well", "activity call": "inactive"}
{"Gene": "Mad2l1bp (MAD2L1 binding protein)", "PubChem SID": "SID315472524", "Tnf reporter robust z-score": 1.94, "fewer than 50 cells in well": "enough cells in well", "activity call": "inactive"}
{"Gene": "Top3a (topoisomerase (DNA) III alpha)", "PubChem SID": "SID315469794", "Tnf reporter robust z-score": 1.25, "fewer than 50 cells in well": "enough cells in well", "activity call": "inactive"}
{"Gene": "Or51af1 (olfactory receptor family 51 subfamily AF member 1)", "PubChem SID": "SID315480683", "Tnf reporter robust z-score": 1.74, "fewer than 50 cells in well": "enough cells in well", "activity call": "inactive"}
